## Library screen at single concentrations

The chains behind the UniProt entries cited, without tags or fusion partners. Residues count along the entry.
UniProt P9WPC5, whole entry: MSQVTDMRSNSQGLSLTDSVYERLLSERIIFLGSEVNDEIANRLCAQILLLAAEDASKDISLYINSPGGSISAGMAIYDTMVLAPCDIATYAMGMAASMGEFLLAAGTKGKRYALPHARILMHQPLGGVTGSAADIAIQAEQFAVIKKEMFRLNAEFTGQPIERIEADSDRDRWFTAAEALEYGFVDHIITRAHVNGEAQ
UniProt P9WPC3, whole entry partner: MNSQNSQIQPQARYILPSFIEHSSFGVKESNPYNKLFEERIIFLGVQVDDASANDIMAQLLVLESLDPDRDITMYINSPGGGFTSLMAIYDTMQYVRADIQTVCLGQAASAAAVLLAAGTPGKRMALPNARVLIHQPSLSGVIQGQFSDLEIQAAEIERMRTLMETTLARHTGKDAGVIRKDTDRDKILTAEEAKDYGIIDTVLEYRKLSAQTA
UniProt P9WFT3, whole entry: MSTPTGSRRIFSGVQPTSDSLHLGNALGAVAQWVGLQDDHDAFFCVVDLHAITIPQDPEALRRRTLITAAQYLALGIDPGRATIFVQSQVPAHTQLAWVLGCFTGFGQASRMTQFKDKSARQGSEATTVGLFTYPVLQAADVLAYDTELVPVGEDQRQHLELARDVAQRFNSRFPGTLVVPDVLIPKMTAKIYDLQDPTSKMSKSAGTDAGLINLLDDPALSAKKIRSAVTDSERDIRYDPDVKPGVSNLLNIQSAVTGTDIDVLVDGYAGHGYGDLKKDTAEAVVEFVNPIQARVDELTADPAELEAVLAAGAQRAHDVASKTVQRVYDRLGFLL
UniProt I6X8D2, whole entry: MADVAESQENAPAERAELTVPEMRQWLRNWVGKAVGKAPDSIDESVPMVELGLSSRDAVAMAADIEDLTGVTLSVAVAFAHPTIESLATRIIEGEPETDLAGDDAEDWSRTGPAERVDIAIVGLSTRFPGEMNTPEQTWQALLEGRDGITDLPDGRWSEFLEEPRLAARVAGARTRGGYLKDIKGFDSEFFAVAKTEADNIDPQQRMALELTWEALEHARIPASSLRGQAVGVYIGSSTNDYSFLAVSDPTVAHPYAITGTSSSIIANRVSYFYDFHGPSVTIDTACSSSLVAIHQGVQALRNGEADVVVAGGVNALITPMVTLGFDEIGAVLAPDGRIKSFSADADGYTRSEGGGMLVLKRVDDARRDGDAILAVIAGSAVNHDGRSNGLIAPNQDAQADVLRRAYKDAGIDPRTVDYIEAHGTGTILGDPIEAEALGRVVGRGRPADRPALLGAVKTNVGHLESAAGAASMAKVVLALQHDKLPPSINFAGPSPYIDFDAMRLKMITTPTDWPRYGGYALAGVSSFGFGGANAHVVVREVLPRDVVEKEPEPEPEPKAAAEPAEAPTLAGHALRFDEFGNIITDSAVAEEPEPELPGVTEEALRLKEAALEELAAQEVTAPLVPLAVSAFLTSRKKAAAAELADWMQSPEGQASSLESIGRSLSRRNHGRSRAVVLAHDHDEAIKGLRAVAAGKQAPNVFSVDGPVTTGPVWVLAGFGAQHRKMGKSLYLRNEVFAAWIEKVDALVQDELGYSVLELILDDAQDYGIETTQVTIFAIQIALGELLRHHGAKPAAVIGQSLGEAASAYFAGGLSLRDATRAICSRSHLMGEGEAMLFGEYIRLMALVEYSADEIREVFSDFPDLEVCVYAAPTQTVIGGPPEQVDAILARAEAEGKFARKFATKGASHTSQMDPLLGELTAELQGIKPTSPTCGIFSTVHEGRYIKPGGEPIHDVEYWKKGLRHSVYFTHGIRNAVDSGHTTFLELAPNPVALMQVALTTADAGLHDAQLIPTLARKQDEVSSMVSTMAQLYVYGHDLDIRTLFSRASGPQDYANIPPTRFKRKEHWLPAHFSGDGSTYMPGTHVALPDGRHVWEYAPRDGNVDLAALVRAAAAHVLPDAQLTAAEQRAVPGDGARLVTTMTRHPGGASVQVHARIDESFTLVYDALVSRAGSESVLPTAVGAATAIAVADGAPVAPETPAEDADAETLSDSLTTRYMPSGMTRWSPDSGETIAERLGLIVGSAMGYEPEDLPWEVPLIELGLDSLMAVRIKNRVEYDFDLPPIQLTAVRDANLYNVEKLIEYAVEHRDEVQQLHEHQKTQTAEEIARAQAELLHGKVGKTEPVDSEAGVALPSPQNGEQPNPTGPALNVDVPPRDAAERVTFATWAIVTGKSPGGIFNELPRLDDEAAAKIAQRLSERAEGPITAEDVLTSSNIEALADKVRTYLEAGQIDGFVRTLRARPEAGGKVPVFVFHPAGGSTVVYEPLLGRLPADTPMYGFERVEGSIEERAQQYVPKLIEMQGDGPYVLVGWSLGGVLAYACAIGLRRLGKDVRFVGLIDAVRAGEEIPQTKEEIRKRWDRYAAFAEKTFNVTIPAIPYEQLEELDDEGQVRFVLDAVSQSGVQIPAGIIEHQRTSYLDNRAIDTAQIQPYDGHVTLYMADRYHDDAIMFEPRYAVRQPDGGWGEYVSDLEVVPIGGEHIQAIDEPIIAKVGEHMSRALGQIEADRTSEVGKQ
UniProt Q8IDJ8, 1-583: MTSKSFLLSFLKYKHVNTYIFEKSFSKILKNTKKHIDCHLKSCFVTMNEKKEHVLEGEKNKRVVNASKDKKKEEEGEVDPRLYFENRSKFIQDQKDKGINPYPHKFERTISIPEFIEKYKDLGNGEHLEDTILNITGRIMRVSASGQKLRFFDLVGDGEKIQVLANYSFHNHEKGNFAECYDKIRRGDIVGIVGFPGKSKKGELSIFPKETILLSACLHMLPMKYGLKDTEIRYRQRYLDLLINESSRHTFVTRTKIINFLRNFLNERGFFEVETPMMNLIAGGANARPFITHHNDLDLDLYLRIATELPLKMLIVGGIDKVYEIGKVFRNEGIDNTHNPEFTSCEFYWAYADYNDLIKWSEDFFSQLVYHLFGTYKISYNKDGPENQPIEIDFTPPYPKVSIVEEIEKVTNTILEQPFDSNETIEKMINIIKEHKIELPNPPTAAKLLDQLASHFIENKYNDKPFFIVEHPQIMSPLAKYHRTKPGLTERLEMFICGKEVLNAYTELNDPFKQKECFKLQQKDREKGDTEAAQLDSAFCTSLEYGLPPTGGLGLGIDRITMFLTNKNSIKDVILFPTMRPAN

Source: ChEMBL document CHEMBL3988442, “University of Dundee, Small-Polar-MMV Screening Library” (2021).

A: 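ClpP1P2, Mycobacterium tuberculosis (UniProt P9WPC5 and UniProt P9WPC3). Protease assay of ClpP1P2, read by the AMC dye that it sets free. Compounds at 50 µM. Direction is inferred from only a few compounds that gave an IC50; most scored high, so higher reads as stronger inhibition. Most other retested compounds had strongly negative values. About 69,000 compounds were tested under these conditions; 0.015% (about 10) showed 50% or more at least once.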
B: 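Enzyme assay of tryptophanyl-tRNA synthetase; the read-out is not stated. Target: Tryptophan-tRNA ligase, Mycobacterium tuberculosis (UniProt P9WFT3). Concentration: 10 µM. Higher most likely means stronger inhibition; the record gives no direction and few retests gave an IC50. Of about 65,000 compounds tested this way, about 64 (0.098%) reached 50% or more in at least one test.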
C: 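Polyketide synthase Pks13, Mycobacterium tuberculosis (UniProt I6X8D2). Enzyme assay of the thioesterase domain of polyketide synthase 13; the read-out is not stated. Tested at 30 µM. The record gives no direction; the compounds picked for IC50 retests had high values, so higher reads as stronger inhibition. Of about 67,000 compounds tested this way, about 300 (0.46%) reached 50% or more in at least one test.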
D: 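Enzyme assay of the cytosolic lysyl-tRNA synthetase in 384-well plates, read by luminescence. Target: Lysine-tRNA ligase, Plasmodium falciparum 3D7 (UniProt Q8IDJ8). Tested at 30 µM. Direction is inferred from only a few compounds that gave an IC50; most scored high, so higher reads as stronger inhibition. Size under these conditions: about 69,000 compounds, about 49 of them at 50% or above in at least one test.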

Results are given as percent effect. The record does not define 0% and 100%; most values in the screen are far below 50% and negative numbers occur (in some assays of this library far below -100). The compounds are a random part of those screened. A dash means the value is not listed here; it may have been measured.

compound,A,B,C,D
Cc1cnn(CCNCCCOc2ccccc2)c1,-8.366%,4.581%,-10.99%,2.083%
CN1CCN(Cc2noc(CC3CCc4ccccc43)n2)CC1 (stereo not given),-12.9%,-0.7852%,-43.95%,1.881%
Cc1nc(C(C)C)sc1C(=O)NCCNc1ncccc1C#N,-33.88%,-5.65%,-1.991%,0.3035%
CN(C)CC1CN(Cc2ccc(F)cc2)Cc2nccn2C1 (stereo not given),8.033%,4.354%,-16.15%,0.129%
CCc1c(C)sc(NC(=O)CN2CCOCC2)c1C(=O)OC,-12.38%,7.043%,-14.49%,5.594%
c1ccc(CN2CC[C@@H]3O[C@@H](COCCN4CCCC4)CC[C@@H]32)nc1,1.002%,1.72%,-4.026%,0.403%
C[C@@H]1CN(Cc2cc3ccccc3n2C)CC[C@@]1(O)C1CC1,-2.447%,0.9266%,-9.576%,-0.9385%
CCCN1CCC(N(C)C(=O)c2cc(C)nc3cc(F)ccc23)CC1,-7.426%,-3.53%,7.351%,2.365%
Cc1nc(-c2ccc(Cl)s2)sc1C(=O)N(C)CC(N)=O,-4.967%,-1.636%,88.94%,7.466%
Cc1nc(COCc2nc3c(o2)CN(C(=O)c2ccoc2)C3)cs1,7.332%,-1.841%,-13.51%,6.276%
Cc1nc(C2CCN(C(C)C)CC2)sc1Br,-20.27%,-3.872%,13.07%,0.6393%
O=C(c1cnc(-c2cccnc2)nc1)N1CCSCC1,-10.92%,3.888%,25.78%,3.838%
Cc1cccc(CN2C(=O)C[C@H]3[C@@H]2CCN3Cc2cccs2)n1,4.184%,4.198%,-21.55%,0.952%
Cc1nnc(N2CCCC(CS(N)(=O)=O)C2)c(C#N)c1C (stereo not given),-4.182%,-1.221%,8.65%,-4.233%
CC(C)NC(=O)N1CCC2(CC1)Cc1ccccc1CN(C)C2=O,-6.426%,-,-1.652%,4.085%
CC1CN(CCC(=O)NCCc2cccnc2)Cc2ccccc2O1 (stereo not given),-13.78%,-4.772%,-13.3%,-4.242%
Fc1ccccc1OCCc1cc(C2CCNC2)n[nH]1 (stereo not given),5.662%,3.304%,-9.95%,1.682%
CC1=C[C@@H](CN2CCCC2)[C@H](C(C)C)C[C@H]1Cc1nnc(C)o1,-10.55%,-1.754%,-5.5%,0.9412%
Cc1noc(CCCC(=O)N2CCNC(=O)C2)n1,-8.267%,-4.852%,-8.065%,4.227%
Nc1cccnc1N1CCCCCC1,-11.59%,3.288%,13.84%,6.679%
Cc1noc(C)c1CN1CCCC2(C1)CN(c1nncs1)CCO2 (stereo not given),-9.254%,3.743%,-15.89%,10.13%
NCc1cnc(Nc2ccccc2)nc1,8.302%,-4.861%,-6.418%,5.802%
COc1cc(NC(=O)N(C)C(C2CC2)C2CC2)ncn1,9.354%,-3.204%,-12.06%,2.97%
O=C(NCCc1c[nH]cn1)c1ccc2c(c1)C(=O)N(C1CC1)C2=O,-3.832%,5.025%,-62.85%,8.501%
CN1CCC(N(C)C[C@H]2CC[C@@H](Cc3ccc4c(cnn4C)c3)O2)CC1,-7.435%,-5.759%,-22.96%,2.92%
O=C(NCc1cnn2cccnc12)c1cccc(CC2CCNCC2)c1,1.022%,1.67%,-249.4%,6.031%
CC(C)n1nc(CN2CCOCC2)c2c1CN(Cc1ccsc1)C2,9.209%,-2.182%,-1.484%,1.134%
CCC(CO)N(Cc1ccco1)C(=O)c1sccc1NC(C)=O (stereo not given),1.15%,-4.93%,-10.01%,2.841%
O=C(O)CN1CCC(c2ccccc2)C1 (stereo not given),5.947%,3.695%,-12.73%,3.82%
CC1(C)CN(CC(F)(F)F)CCN1CC(=O)NC1CC1,-5.401%,1.481%,-31.65%,-0.2836%
Cc1cnn(CC(=O)N2CCCN(c3ncccc3C#N)CC2)c1,-37.71%,4.023%,-0.9236%,0.3444%
c1coc(-c2noc(CN3CCCCC3Cn3cncn3)n2)c1 (stereo not given),-12.79%,17.19%,-15.19%,-0.2368%
CCn1cc(CN2CCC(CCC(=O)Nc3ccccc3Cl)CC2)cn1,-11.61%,5.542%,14.79%,-0.674%
Cc1cccc(C(=O)N(CC(=O)O)CC(C)C)c1,-2.673%,2.733%,-0.8278%,3.962%
O=C(CCc1nccs1)N1CCN(c2ccccn2)CC1,-37.97%,20.69%,-15.01%,0.6909%
Cc1nccn1[C@@H]1CC[C@@H](N(C)S(=O)(=O)c2ccc(F)cc2)[C@H]1O,-21.13%,-2.546%,5.593%,-0.04889%
COCC(C)(C#N)NC(=O)COc1ccccc1Br (stereo not given),-10.5%,-5.068%,-38.38%,5.726%
c1cncc(-c2ccnn2CN2CCOCC2)c1,-2.14%,-2.987%,-,0.6444%
Cc1ccc(NC(=O)CNc2ccn(CC(N)=O)n2)c(Cl)c1,14.18%,-3.838%,6.169%,3.879%
CN(CC(=O)NCC1CCCCC1)S(=O)(=O)c1cccnc1,4.014%,-0.7157%,-32.5%,-1.61%
O=C(C1CCCC1)N1C[C@@H]2CCNC[C@@H]21,-14.9%,-5.255%,-44.26%,3.809%
O=C(NC1CCCC1)c1cc2c(s1)CCN2C(=O)c1ccccc1,-22.97%,6.649%,-39.32%,1.203%
COc1ccccc1C(C)N(C)Cc1nc2c(cnn2C)c(=O)[nH]1 (stereo not given),-17.8%,0.4838%,-6.982%,2.688%
Cc1[nH]c(=O)[nH]c(=O)c1CN1CCCC(CCc2ccccc2F)C1 (stereo not given),3.115%,3.782%,-37.83%,-0.1669%
Cc1cccc(NC2CCN(C(=O)Nc3cc(F)cc(F)c3)CC2)n1,3.419%,4.957%,-29.69%,-1.884%
Cc1ccc(CNC(C)c2nnc3n2CCCC3)o1 (stereo not given),7.503%,-4.036%,-11.44%,2.704%
CC(C)(C)C(Cn1ccnc1)NC(=O)NCc1ccco1 (stereo not given),5.162%,3.138%,-27.99%,4.726%
CCc1nc(CN2CCCN(C(=O)c3cnc(C)cn3)CC2)cs1,-39.71%,3.87%,-14.1%,1.118%
Cc1ccnc2c1NC(=O)CN2C(=O)CCc1cccs1,-13.21%,1.56%,-3.584%,3.488%
Cc1ccc2[nH]c(C3CCN(CC(N)=O)CC3)nc2c1,9.302%,-0.2894%,32.56%,1.13%
Cn1cnnc1SCc1cc2c(cc1Br)OCO2,-6.798%,-3.215%,-0.5444%,0.2944%
O=C(NC1CCCC1)NC1CCc2[nH]c(=O)ccc2C1 (stereo not given),-0.5393%,3.453%,-36.19%,2.709%
CNC(=O)c1cc2c(nc1NCC(C)C)CCN(CCOC)CC2,-104.3%,-4.333%,46.85%,3.936%
CCc1ccc(CN(CCCn2ccnc2)Cc2ccc(C)s2)o1,-18.03%,-1.756%,-112.6%,-8.841%
Cn1nccc1C(=O)N1Cc2cc(Cl)ccc2OC2(CCOCC2)C1,-6.424%,-2.261%,2.419%,1.467%
c1cn(-c2ccc(CN3CCCC3)cc2)c(-c2cc3n(n2)CCNC3)n1,-8.655%,3.196%,-0.9033%,-2.756%
COCc1nc(C(=O)N2CCCC2c2noc(C(C)C)n2)cs1 (stereo not given),-1.875%,-2.437%,-7.586%,-2.129%
CCc1cc(N2CCC3(CCCNC3=O)C2)nc(N2CCOCC2)n1 (stereo not given),-13.72%,-2.98%,-16.27%,0.4783%
O=C1CC[C@@H]2[C@@H](CCN2C(=O)c2ccsc2)N1CC1CC1,4.847%,-1.657%,-38.55%,-1.502%
CCc1nccn1CCCNC(=O)CN1CCN(c2ncccn2)CC1,-2.261%,1.377%,-8.184%,1.973%
CC(=O)N(Cc1noc(C)n1)C1CCN(CC2(O)CCCCC2)C1 (stereo not given),-12.57%,-2.583%,-0.5387%,-1%
Cc1ccccc1CC(=O)N1CC[C@@](O)(CNS(C)(=O)=O)[C@H](O)C1,3.223%,-0.2899%,0.6203%,0.6836%
COc1ccc(CNc2c(N3CCN(C)CC3)c(=O)c2=O)cc1,-10.32%,-0.7698%,-8.615%,2.998%
CN(Cc1cccc(F)c1)Cc1nc2c(cnn2C)c(=O)[nH]1,-1.525%,15.97%,-27.46%,-1.336%